Results: patent US20210332111A1
These are yes or no findings as the source states them, for the method shown. Some results given as binding are weak or reduced against the parent protein; the word gives no strength.

Target: recombinant ZIKV DIII (domain III of the E protein, strain H/PF/2013, residues 299 to 407) (Zika virus, strain H/PF/2013)
Experiment: co-crystal structure

B1: ZV-48 scFv (scFv)
scFv: DIVMSQSPSSLAVSVGEKITMSCKSSQSLLYSNNEKNYLAWYQQKPGQSPKLLIYWASARDSGVPDRFTGSGSGTDFTLTISSVKAEDLAVFYCQQYYSYPYTFGGGTKLEIKGGGGSGGGGSGGGGSQVQLQQPGAELLKPGASVKLSCKASGYSFSNYWMHWVKQRPGQGPEWIGMIHPNSGNTKYNEKFKNKATLTVDKSSSMVYMQLSSLTSEDSAVFYCARLGNDMDYWGQGTSVTVSS
binding: binds
